PubChem BioAssay AID743454 – Peter MacCallum Cancer Centre – 2014

Assay: 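Knock-downs lowering viability or raising caspase 3/7 activity in vorinostat-treated resistant cells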 (primary screen)
System: human HCT116-VR colon cancer cells, selected for vorinostat resistance
Knock-down reagent: siRNA pool against human genes, 40 nM siRNA pool
Time to read-out: vorinostat for 24 h, read-out about 72 h after transfection
Treatment: vorinostat at 2.5 µM final
Measured: 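Two measures, CellTiter-Fluor viability and luminescent caspase 3/7 activity, each as fold change against same-plate mock wells, mean of duplicates, then screen-wide robust z-score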
Direction: viability robust z-score: higher = more viable cells than screen typical; caspase robust z-score: higher = more caspase 3/7 activity than screen typical
Call rule: 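a knock-down is a hit when classed RV1 or RV2 for lowered viability, or CA1 or CA2 for caspase activation; those lethal without drug were dropped; hits were retested singly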
Shown is one part, drawn at random, of about 18,000 deposited reagents. 450 of them (2.5%) were called active. 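Single biological run; no consistent viability z cut-off exists, so the class columns, not z-scores, define the calls.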 A number with no mark means an inactive call.

gene	PubChem SID	viability hit class	caspase hit class	viability robust z-score	caspase robust z-score
FAM204A	SID134318120	no change	no change	-0.61	0.28
SLC38A9	SID134312385	no change	no change	-0.1	-1
CHD7	SID152154548	no change	no change	1.37	-1.01
FAAH2	SID134321707	no change	no change	0.37	-0.98
SLC35E3	SID152148448	no change	no change	-0.18	-0.27
MRC1	SID135622187	no change	no change	-0.2	-0.6
MRC1	SID135625298	no change	no change	-0.3	-1.26
EMC3	SID134315207	no change	no change	-0.32	0.22
ARL6IP5	SID134316516	no change	no change	0.04	-0.9
GCG	SID152148138	no change	no change	0.04	1.08
POLR3G	SID135623923	no change	no change	-0.68	4.6
RFX3	SID134316082	no change	no change	0.76	-0.43
PHF11	SID152153308	no change	no change	0.32	0.01
SYN1	SID152147149	no change	no change	-0.12	-0.68
MEAK7	SID152152185	no change	no change	1.39	0.92
RNF138	SID152149356	no change	no change	-2.69	2.86
NIBAN3	SID135621989	no change	no change	-0.72	0.86
NODAL	SID134321682	no change	no change	-1.77	3.7
DMRTC2	SID135622874	no change	no change	0.04	0.82
CFI	SID135621097	no change	no change	-0.62	2.98
ZNF439	SID152149286	no change	no change	-0.76	-1.03
LMBR1	SID152149374	no change	no change	0.27	2.17
CLEC4A	SID152147359	no change	no change	-1.65	2.96
KCNA10	SID134311629	no change	no change	-0.15	-0.26
GOSR1	SID152156676	no change	no change	0.01	-0.35
TM6SF1	SID152146997	no change	no change	-0.84	-0.78
KLHL21	SID152149586	no change	no change	-0.1	-1.12
F13A1	SID152150878	no change	no change	0.31	-0.54
DCSTAMP	SID135621629	no change	no change	0.28	-0.04
QTMAN	SID135622733	no change	no change	-1.04	-0.28
NINJ1	SID152148847	no change (active)	CA1 (caspase activation)	-0.94	5.64
NOL4L	SID134319288	no change	no change	0.1	4.75
CALML6	SID152152596	no change	no change	1.14	-0.12
RAB2A	SID134315033	no change	no change	0.16	1.14
ARHGAP12	SID152149324	no change	no change	0.45	-0.62
NECAB2	SID134322767	no change	no change	0.66	1.84
TNFSF13	SID134315854	no change	no change	1.64	-0.96
GLP1R	SID134310958	no change	no change	0.13	1.01
ZNF212	SID134321459	no change	no change	-0.7	0.32
FAM124B	SID134322255	no change	no change	0.54	0.32
PTGES2	SID135624182	no change	no change	0.42	0.38
TSPY1	SID152151493	no change	no change	1.72	-0.4
TCN2	SID134315469	no change	no change	0.03	-1.19
GFM2	SID134321467	no change	no change	1.23	1.23
ZNF629	SID135624334	RV2 (reduced viability) (active)	no change	-3.05	4.64
ACAD9	SID134313841	no change	no change	-0.7	1.25
SANBR	SID134325485	no change	no change	1.14	-0.22
BRAP	SID134311916	no change	no change	0.34	-0.02
ZNF83	SID152147952	no change	no change	-0.82	-0.44
GPAT4	SID134314875	no change	no change	-0.16	0.12
HMX2	SID135625183	no change	no change	1.57	-0.49
PKNOX2	SID152148723	no change	no change	0.41	-0.87
TIPE3	SID152156483	no change	no change	0.24	0.33
SMC6	SID152150183	no change	no change	1.35	1.66
ABHD3	SID134313454	no change	no change	-0.29	-0.48
ZNF699	SID152155223	no change	no change	-1.7	4.14
PLEKHG5	SID152155659	no change	no change	0.55	1.01

Reformatted: results already given
{"gene":"ARL6IP5","PubChem SID":"SID134316516","viability hit class":"no change","caspase hit class":"no change","viability robust z-score":0.04,"caspase robust z-score":-0.9}
{"gene":"GCG","PubChem SID":"SID152148138","viability hit class":"no change","caspase hit class":"no change","viability robust z-score":0.04,"caspase robust z-score":1.08}
{"gene":"POLR3G","PubChem SID":"SID135623923","viability hit class":"no change","caspase hit class":"no change","viability robust z-score":-0.68,"caspase robust z-score":4.6}
{"gene":"RFX3","PubChem SID":"SID134316082","viability hit class":"no change","caspase hit class":"no change","viability robust z-score":0.76,"caspase robust z-score":-0.43}
{"gene":"PHF11","PubChem SID":"SID152153308","viability hit class":"no change","caspase hit class":"no change","viability robust z-score":0.32,"caspase robust z-score":0.01}
{"gene":"SYN1","PubChem SID":"SID152147149","viability hit class":"no change","caspase hit class":"no change","viability robust z-score":-0.12,"caspase robust z-score":-0.68}
{"gene":"MEAK7","PubChem SID":"SID152152185","viability hit class":"no change","caspase hit class":"no change","viability robust z-score":1.39,"caspase robust z-score":0.92}
{"gene":"RNF138","PubChem SID":"SID152149356","viability hit class":"no change","caspase hit class":"no change","viability robust z-score":-2.69,"caspase robust z-score":2.86}
{"gene":"NIBAN3","PubChem SID":"SID135621989","viability hit class":"no change","caspase hit class":"no change","viability robust z-score":-0.72,"caspase robust z-score":0.86}
